Assay results: the supplement of paper PMC10849652
Some of the results follow.

The chains behind the UniProt entries cited, without tags or fusion partners. Where a name states a change or a piece, a line headed by the entry shows the natural chain unless it says otherwise.
UniProt Q13303: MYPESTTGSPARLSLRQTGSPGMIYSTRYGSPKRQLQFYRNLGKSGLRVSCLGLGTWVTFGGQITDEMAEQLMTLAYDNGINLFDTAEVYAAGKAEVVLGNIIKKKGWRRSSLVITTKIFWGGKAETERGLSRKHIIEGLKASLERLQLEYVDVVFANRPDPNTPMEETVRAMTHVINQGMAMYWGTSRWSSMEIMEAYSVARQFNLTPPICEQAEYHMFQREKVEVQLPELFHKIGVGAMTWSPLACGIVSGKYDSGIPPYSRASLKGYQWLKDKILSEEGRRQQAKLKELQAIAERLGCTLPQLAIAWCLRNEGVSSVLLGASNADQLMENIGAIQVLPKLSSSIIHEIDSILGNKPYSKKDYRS
UniProt Q07666, whole entry, looked up: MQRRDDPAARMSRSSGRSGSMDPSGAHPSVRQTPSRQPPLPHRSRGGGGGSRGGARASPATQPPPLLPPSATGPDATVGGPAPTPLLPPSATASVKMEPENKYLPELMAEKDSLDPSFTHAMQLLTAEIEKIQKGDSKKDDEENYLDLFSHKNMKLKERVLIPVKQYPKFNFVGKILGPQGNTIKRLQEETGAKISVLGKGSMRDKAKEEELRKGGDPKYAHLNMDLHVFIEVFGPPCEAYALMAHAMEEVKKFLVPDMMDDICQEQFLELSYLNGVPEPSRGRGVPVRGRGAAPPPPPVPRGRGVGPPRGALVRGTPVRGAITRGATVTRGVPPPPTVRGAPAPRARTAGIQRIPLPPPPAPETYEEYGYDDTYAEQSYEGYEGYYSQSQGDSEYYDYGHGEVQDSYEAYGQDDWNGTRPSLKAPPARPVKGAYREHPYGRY
UniProt Q14681: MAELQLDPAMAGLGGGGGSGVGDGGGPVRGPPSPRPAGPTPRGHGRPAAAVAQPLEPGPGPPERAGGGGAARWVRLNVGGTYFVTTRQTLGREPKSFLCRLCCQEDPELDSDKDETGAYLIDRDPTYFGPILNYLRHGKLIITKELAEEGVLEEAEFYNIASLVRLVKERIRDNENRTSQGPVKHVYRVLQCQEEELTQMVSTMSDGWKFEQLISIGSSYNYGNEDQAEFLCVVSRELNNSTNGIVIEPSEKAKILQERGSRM
UniProt Q8TBB5: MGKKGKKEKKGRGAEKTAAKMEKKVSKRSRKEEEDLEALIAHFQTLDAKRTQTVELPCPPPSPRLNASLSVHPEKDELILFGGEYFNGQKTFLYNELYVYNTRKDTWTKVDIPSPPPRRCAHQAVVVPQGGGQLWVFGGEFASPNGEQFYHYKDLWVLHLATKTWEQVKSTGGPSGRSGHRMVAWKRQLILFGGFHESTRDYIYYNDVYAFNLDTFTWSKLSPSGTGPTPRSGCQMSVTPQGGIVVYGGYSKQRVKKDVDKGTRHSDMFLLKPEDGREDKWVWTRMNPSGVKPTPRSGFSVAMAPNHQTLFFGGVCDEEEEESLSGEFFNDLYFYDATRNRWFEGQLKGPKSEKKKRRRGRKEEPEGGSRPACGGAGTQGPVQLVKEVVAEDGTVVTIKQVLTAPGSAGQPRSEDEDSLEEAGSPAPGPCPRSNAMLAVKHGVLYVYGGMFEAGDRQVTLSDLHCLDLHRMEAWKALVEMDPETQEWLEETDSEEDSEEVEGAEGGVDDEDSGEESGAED
UniProt Q99661: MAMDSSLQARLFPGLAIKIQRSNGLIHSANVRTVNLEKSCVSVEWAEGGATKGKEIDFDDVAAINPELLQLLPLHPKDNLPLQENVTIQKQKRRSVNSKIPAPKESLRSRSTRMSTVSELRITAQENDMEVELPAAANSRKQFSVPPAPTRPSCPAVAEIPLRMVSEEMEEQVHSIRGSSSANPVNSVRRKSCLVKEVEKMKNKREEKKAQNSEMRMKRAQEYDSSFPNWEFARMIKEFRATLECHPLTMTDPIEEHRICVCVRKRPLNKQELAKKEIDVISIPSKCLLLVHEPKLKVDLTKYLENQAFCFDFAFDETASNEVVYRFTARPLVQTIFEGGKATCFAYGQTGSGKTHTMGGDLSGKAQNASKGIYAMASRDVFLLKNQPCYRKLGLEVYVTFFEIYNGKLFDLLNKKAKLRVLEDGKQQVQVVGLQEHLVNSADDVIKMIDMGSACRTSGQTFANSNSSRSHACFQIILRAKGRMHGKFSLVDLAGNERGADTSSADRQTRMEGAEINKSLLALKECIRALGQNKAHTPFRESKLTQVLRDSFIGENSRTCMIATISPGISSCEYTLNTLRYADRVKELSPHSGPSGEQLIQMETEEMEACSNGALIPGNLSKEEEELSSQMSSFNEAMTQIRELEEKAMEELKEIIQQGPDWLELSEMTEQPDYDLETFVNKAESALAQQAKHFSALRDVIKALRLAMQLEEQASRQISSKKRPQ
UniProt Q8N5M9: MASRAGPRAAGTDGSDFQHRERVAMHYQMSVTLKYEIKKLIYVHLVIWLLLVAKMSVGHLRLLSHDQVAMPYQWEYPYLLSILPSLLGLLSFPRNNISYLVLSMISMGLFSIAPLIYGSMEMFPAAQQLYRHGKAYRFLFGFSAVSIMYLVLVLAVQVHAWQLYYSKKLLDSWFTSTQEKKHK
UniProt Q9P0J7: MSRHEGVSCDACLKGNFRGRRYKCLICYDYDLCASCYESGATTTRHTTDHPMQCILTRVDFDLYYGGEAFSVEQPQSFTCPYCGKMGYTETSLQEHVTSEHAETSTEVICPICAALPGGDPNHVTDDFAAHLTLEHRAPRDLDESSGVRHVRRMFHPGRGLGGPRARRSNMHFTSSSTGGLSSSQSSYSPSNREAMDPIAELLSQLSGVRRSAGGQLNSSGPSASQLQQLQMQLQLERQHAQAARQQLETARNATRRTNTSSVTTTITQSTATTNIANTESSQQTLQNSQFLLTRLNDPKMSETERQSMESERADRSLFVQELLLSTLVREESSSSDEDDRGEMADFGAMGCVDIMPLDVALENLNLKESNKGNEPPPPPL
UniProt Q8NFY9: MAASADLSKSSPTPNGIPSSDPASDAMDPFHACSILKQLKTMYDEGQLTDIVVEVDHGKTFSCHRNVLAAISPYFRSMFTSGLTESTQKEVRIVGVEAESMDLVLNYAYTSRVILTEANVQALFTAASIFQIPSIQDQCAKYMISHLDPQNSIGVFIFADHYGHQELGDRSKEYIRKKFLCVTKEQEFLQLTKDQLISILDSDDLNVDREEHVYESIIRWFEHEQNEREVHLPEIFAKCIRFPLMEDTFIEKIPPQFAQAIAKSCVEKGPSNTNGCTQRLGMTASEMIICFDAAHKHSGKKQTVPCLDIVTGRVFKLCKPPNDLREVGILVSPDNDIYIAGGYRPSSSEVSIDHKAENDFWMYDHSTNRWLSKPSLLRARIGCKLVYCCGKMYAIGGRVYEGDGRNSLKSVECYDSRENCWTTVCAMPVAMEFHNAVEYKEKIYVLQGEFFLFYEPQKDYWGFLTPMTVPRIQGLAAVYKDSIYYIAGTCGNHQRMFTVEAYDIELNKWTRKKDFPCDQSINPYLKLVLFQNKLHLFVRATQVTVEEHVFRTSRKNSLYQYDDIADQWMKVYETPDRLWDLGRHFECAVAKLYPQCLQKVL
UniProt P33947: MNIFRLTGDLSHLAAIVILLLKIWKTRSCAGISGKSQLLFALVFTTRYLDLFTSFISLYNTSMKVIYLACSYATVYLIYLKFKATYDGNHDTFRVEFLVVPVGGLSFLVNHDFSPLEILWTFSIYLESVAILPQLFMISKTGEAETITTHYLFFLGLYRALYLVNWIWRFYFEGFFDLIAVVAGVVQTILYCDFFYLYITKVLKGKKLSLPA
UniProt Q9BY66, whole entry, looked up: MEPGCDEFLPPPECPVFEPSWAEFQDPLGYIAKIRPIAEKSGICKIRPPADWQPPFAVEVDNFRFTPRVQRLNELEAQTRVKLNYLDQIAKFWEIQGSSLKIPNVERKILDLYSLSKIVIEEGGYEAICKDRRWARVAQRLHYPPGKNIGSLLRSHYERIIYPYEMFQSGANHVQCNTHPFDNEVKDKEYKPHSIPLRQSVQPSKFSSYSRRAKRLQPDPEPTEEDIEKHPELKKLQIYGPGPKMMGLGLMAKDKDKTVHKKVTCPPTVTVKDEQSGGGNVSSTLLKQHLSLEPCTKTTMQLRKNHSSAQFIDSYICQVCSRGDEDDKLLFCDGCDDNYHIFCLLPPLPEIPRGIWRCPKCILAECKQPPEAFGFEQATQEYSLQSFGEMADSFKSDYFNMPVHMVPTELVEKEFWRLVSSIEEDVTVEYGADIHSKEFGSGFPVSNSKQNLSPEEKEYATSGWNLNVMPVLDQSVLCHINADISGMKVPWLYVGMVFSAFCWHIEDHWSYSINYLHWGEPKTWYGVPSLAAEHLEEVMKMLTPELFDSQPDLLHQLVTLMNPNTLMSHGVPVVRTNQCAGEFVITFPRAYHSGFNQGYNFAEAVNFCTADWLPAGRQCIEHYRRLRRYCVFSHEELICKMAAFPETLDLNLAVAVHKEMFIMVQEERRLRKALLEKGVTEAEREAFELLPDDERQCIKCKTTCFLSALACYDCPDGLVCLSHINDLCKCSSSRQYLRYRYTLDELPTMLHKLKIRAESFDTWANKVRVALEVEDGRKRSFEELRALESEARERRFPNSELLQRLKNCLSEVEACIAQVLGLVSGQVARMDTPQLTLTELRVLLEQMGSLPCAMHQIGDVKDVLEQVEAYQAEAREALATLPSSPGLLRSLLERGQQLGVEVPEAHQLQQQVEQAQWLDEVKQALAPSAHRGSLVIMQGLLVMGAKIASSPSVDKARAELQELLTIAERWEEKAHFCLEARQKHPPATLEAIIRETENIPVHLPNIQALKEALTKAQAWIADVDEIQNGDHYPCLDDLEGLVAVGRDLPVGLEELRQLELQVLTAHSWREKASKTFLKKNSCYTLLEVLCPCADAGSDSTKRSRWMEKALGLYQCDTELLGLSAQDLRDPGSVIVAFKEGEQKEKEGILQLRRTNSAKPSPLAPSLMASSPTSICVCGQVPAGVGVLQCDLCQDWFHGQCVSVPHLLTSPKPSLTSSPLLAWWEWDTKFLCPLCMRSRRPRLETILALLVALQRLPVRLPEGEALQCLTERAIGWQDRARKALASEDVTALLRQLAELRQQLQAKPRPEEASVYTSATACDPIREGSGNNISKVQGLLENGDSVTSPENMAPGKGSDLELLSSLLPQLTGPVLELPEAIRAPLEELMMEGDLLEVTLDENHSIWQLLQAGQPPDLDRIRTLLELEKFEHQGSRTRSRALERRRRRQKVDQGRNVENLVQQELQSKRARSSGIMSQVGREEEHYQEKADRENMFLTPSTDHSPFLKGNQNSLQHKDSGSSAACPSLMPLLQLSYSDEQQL
UniProt Q7L273: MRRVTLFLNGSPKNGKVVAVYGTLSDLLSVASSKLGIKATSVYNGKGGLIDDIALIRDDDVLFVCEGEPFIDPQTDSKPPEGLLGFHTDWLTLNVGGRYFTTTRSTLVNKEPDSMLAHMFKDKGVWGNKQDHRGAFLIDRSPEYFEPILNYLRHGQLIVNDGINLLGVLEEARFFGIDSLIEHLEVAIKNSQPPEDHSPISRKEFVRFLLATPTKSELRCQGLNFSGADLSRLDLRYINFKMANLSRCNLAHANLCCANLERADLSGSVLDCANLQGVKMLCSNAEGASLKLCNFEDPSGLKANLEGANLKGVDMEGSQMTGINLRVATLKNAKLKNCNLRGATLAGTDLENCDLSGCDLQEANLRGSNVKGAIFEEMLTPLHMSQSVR

Tests used:
Assay in all cases: log2 fold change, soluble protein after heating vs DMSO (PISA); higher = thermal stabilisation; K562 cells, 10 uM, 30 min; active = over 0.2 and 3.5 SD of the protein, either way, in both replicates (recomputed)
[1] = compound: CC[C@@H]1C(=O)N(C)c2cnc(Nc3ccc(C(=O)NC4CCN(C)CC4)cc3OC)nc2N1C1CCCC1
How it was run: (§1)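 Quantification of soluble protein used TMTpro 16plex LC-MS/MS, with channel sums equalised. Samples were the supernatant after 21,000xg for 90 min of pooled aliquots from K562 cells (2×10^6 cells/mL) treated with 10 μM compound for 30 min, heated for 3 min over 48°C-58°C, and extracted in PBS with 0.5% NP-40 at 4°C. Values, from duplicates, describe thermal stability against control samples on a log2 fold-change scale.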

volasertib = compound: CC[C@@H]1C(=O)N(C)c2cnc(Nc3ccc(C(=O)N[C@H]4CC[C@H](N5CCN(CC6CC6)CC5)CC4)cc3OC)nc2N1C(C)C [volasertib]
How it was run: as §1

[2] = compound: CC[C@H](C)N1C=C(C2=C(C=C(C=C21)C3=CN=C(C=C3)N4CCNCC4)C(=O)NCC5=C(C=C(NC5=O)C)C)C
How it was run: as §1

epoxomicin = compound: CC[C@H](C)[C@@H](C(=O)N[C@@H]([C@@H](C)O)C(=O)N[C@@H](CC(C)C)C(=O)[C@]1(CO1)C)NC(=O)[C@H]([C@@H](C)CC)N(C)C(=O)C [epoxomicin]
How it was run: as §1

[3] = compound: CCn1c(C(=O)N(C2CC2)C2CC2)cc2c3c(ncn3C)c(Nc3cc(C)n(C)n3)nc21
How it was run: as §1

[4] = compound: CCn1cc(-c2ccnc3[nH]c(-c4cccc(CN(C)C)c4)cc23)c(-c2ccc(NC(=O)N(C)C)cc2)n1
How it was run: as §1

[5] = compound: CN(C)CC(=O)Nc1ccc2[nH]c(=O)c3ccccc3c2c1
How it was run: as §1

rosiglitazone = compound: CN(CCOC1=CC=C(C=C1)C[C@H]2C(=O)NC(=O)S2)C3=CC=CC=N3 (racemic) [rosiglitazone]
How it was run: as §1

[6] = compound: CN1C2=C(C3=C1C(=O)N(N=C3)CC4=CC(=CC=C4)N)SC(=C2)S(=O)C
How it was run: as §1

[7] = compound: CN1CCC(CNc2ccc3ncc(-c4cccc(OC(F)(F)F)c4)n3n2)CC1
How it was run: as §1

saracatinib = compound: CN1CCN(CCOc2cc(OC3CCOCC3)c3c(Nc4c(Cl)ccc5c4OCO5)ncnc3c2)CC1 [saracatinib]
How it was run: as §1

sotrastaurin = compound: CN1CCN(c2nc(C3=C(c4c[nH]c5ccccc45)C(=O)NC3=O)c3ccccc3n2)CC1 [sotrastaurin]
How it was run: as §1

alvocidib = compound: CN1CC[C@H](c2c(O)cc(O)c3c(=O)cc(-c4ccccc4Cl)oc23)[C@H](O)C1 [alvocidib]
How it was run: as §1

Tubastatin A = compound: CN1CCc2c(c3ccccc3n2Cc2ccc(C(=O)NO)cc2)C1 [Tubastatin A]
How it was run: as §1

[8] = compound: CNC(=O)C1=CC=CC=C1NC2=NC(=NC=C2Cl)NC3=C(C=C(C=C3)N4CCOCC4)OC
How it was run: as §1

defactinib = compound: CNC(=O)c1ccc(Nc2ncc(C(F)(F)F)c(NCc3nccnc3N(C)S(C)(=O)=O)n2)cc1 [defactinib]
How it was run: as §1

rucaparib = compound: CNCc1ccc(-c2[nH]c3cc(F)cc4c3c2CCNC4=O)cc1 [rucaparib]
How it was run: as §1

[9] = compound: CNc1nc(-c2ccc3c(N)n[nH]c3c2)cc(N2C[C@@H](C(=O)NC3CCCCC3)CC[C@H]2C)n1
How it was run: as §1

encorafenib = compound: COC(=O)N[C@@H](C)CNc1nccc(-c2cn(C(C)C)nc2-c2cc(Cl)cc(NS(C)(=O)=O)c2F)n1 [encorafenib]
How it was run: as §1

[10] = compound: COC(=O)[C@H](CCSC)NC(=O)C1=C(C=C(C=C1)NC[C@H](CS)N)C2=CC=CC=C2
How it was run: as §1

Measured: log2 fold change

KCNAB2 (UniProt Q13303)
inactive: [1] 0.084 | volasertib 0.001 | [2] -0.02 | epoxomicin -0.007 | [3] 0.018 | [4] -0.012 | [5] 0.096 | rosiglitazone 0.022 | [6] -0.094 | [7] -0.056 | saracatinib 0.012 | sotrastaurin 0.032 | alvocidib -0.017 | Tubastatin A -0.075 | [8] -0.022 | defactinib 0.044 | rucaparib -0.097 | [9] -0.038 | encorafenib 0.021 | [10] -0.065

KPNA6 (UniProt O60684)
inactive: [1] -0.225 | [2] 0.04 | epoxomicin 0.021 | [4] 0.043 | [5] 0.063 | [6] 0.227 | [7] -0.184 | saracatinib -0.004 | sotrastaurin -0.117 | Tubastatin A 0.008 | [8] 0.082 | defactinib -0.06 | rucaparib 0.092 | [9] -0.042 | encorafenib 0.12 | [10] -0.099
active: volasertib -0.699

KHDRBS1 (UniProt Q07666)
inactive: [1] 0.148 | volasertib 0.106 | [2] 0.074 | epoxomicin -0.029 | [4] -0.096 | [5] -0.007 | [6] -0.04 | [7] 0.116 | saracatinib 0.025 | sotrastaurin 0.018 | Tubastatin A -0.006 | [8] 0 | defactinib 0.042 | [9] -0.009 | encorafenib -0.009 | [10] -0.05
active: rucaparib 0.248

KCTD2 (UniProt Q14681)
inactive: [1] 0.003 | volasertib 0.029 | [2] -0.033 | epoxomicin -0.052 | [4] -0.024 | [5] -0.068 | [6] 0.049 | [7] -0.623 | saracatinib -0.276 | sotrastaurin 0.226 | Tubastatin A 0.015 | [8] -0.076 | defactinib 0.038 | rucaparib 0.066 | [9] -0.243 | encorafenib -0.128 | [10] 0.082

KLHDC4 (UniProt Q8TBB5)
inactive: [1] 0.091 | volasertib -0.342 | [2] 0.012 | epoxomicin -0.026 | [4] -0.064 | [5] 0.065 | [6] 0.075 | [7] 0.158 | saracatinib -0.006 | sotrastaurin -0.037 | Tubastatin A -0.072 | [8] 0.02 | defactinib 0.021 | rucaparib 0.115 | [9] -0.029 | encorafenib 0.106 | [10] -0.066

KIF2C (UniProt Q99661)
active: volasertib -0.357
inactive: [1] -0.037 | [2] 0.084 | epoxomicin 0.019 | [4] -0.063 | [5] 0.09 | [6] 0.003 | [7] -0.06 | saracatinib 0.003 | sotrastaurin -0.048 | Tubastatin A 0.024 | [8] -0.017 | defactinib -0.051 | rucaparib 0.019 | [9] 0.064 | encorafenib 0.142 | [10] -0.092

KRAS isoform 2 (UniProt P01116)
inactive: [1] 0.08 | volasertib 0.026 | [2] -0.047 | epoxomicin 0.027 | [4] -0.073 | [5] 0 | [6] 0.062 | [7] 0.141 | saracatinib 0.039 | sotrastaurin 0.045 | Tubastatin A -0.036 | [8] 0.027 | defactinib 0.013 | rucaparib -0.028 | [9] 0.011 | encorafenib 0.043 | [10] 0.02

JAGN1 (UniProt Q8N5M9)
inactive: [1] 0.058 | volasertib 0.018 | [2] -0.037 | epoxomicin 0.073 | [3] 0.046 | [4] -0.105 | [5] 0.006 | rosiglitazone 0.013 | [6] -0.106 | [7] 0.065 | saracatinib 0.009 | sotrastaurin 0.036 | alvocidib -0.092 | Tubastatin A 0.005 | [8] -0.021 | defactinib -0.039 | rucaparib 0.031 | [9] -0.031 | encorafenib -0.02 | [10] -0.05

KEL (UniProt P23276)
inactive: [1] 0.195 | volasertib -0.085 | [2] -0.085 | epoxomicin 0.063 | [4] -0.013 | [5] -0.007 | [6] 0.018 | [7] 0.088 | saracatinib 0.09 | sotrastaurin -0.009 | Tubastatin A 0.004 | [8] -0.091 | defactinib -0.038 | rucaparib 0.006 | [9] -0.026 | encorafenib -0.061 | [10] 0.03

Two entries picked at random from the list so far:
KEL (UniProt P23276)
inactive: [1] 0.195 | volasertib -0.085 | [2] -0.085 | epoxomicin 0.063 | [4] -0.013 | [5] -0.007 | [6] 0.018 | [7] 0.088 | saracatinib 0.09 | sotrastaurin -0.009 | Tubastatin A 0.004 | [8] -0.091 | defactinib -0.038 | rucaparib 0.006 | [9] -0.026 | encorafenib -0.061 | [10] 0.03

KRAS isoform 2 (UniProt P01116)
inactive: [1] 0.08 | volasertib 0.026 | [2] -0.047 | epoxomicin 0.027 | [4] -0.073 | [5] 0 | [6] 0.062 | [7] 0.141 | saracatinib 0.039 | sotrastaurin 0.045 | Tubastatin A -0.036 | [8] 0.027 | defactinib 0.013 | rucaparib -0.028 | [9] 0.011 | encorafenib 0.043 | [10] 0.02

Additional results.

KCMF1 (UniProt Q9P0J7)
inactive: [1] -0.098 | volasertib 0.004 | [2] 0.065 | epoxomicin -0.032 | [3] -0.106 | [4] -0.007 | [5] 0.012 | rosiglitazone -0.011 | [7] 0.214 | sotrastaurin -0.124 | alvocidib -0.04 | Tubastatin A 0.016 | [8] 0.022 | defactinib 0.013 | rucaparib 0.069 | encorafenib 0.055 | [10] -0.029

KDM3B (UniProt Q7LBC6)
inactive: [1] -0.164 | [2] 0.06 | epoxomicin 0.061 | [4] 0.001 | [5] 0.043 | [6] -0.049 | [7] -0.071 | saracatinib 0.01 | sotrastaurin -0.089 | Tubastatin A -0.01 | [8] 0.072 | defactinib -0.161 | rucaparib -0.058 | [9] -0.093 | encorafenib 0.054 | [10] -0.029
active: volasertib -0.349

KBTBD8 (UniProt Q8NFY9)
inactive: [1] 0.071 | volasertib 0.241 | [2] 0.065 | epoxomicin 0.038 | [4] 0.167 | [5] -0.033 | rosiglitazone 0.106 | [6] 0.018 | [7] -0.095 | saracatinib 0.016 | sotrastaurin -0.057 | alvocidib -0.046 | Tubastatin A -0.124 | defactinib 0.017 | rucaparib 0.044 | [9] 0.007 | encorafenib -0.014 | [10] -0.015

KDELR2 (UniProt P33947)
inactive: [1] 0.033 | volasertib -0.18 | [2] -0.089 | epoxomicin -0.02 | [4] -0.016 | [5] -0.125 | [6] -0.063 | [7] 0.255 | saracatinib 0.094 | sotrastaurin 0.061 | Tubastatin A -0.295 | [8] 0.04 | defactinib -0.004 | rucaparib -0.072 | [9] -0.058 | encorafenib -0.005 | [10] 0.023

KHSRP (UniProt Q92945)
inactive: [1] -0.035 | volasertib 0.084 | [2] -0.038 | epoxomicin -0.034 | [3] 0.03 | [4] 0.038 | [5] -0.028 | rosiglitazone 0 | [6] -0.045 | [7] 0.02 | saracatinib 0.015 | sotrastaurin 0.05 | alvocidib 0.01 | Tubastatin A -0.037 | [8] 0.001 | defactinib 0 | rucaparib -0.048 | [9] -0.051 | encorafenib -0.037 | [10] 0.024

KDM5D isoform 3 (UniProt Q9BY66)
active: Tubastatin A -0.451
inactive: [1] -0.305 | volasertib -0.404 | [2] 0.032 | epoxomicin 0.163 | [4] 0.034 | [5] 0.223 | [6] -0.14 | [7] -0.059 | saracatinib -0.063 | sotrastaurin 0.078 | [8] 0.026 | defactinib -0.357 | rucaparib 0.067 | [9] -0.078 | encorafenib 0.198 | [10] -0.05

KIF13A (UniProt Q9H1H9)
inactive: [1] 0.007 | volasertib -0.041 | [2] -0.003 | epoxomicin 0.004 | [4] -0.068 | [5] -0.026 | [6] -0.012 | [7] 0.039 | saracatinib 0.063 | sotrastaurin 0.041 | Tubastatin A 0.028 | [8] 0.1 | defactinib -0.026 | rucaparib 0.008 | [9] -0.093 | encorafenib -0.025 | [10] 0.034

KCTD9 (UniProt Q7L273)
inactive: [1] 0.01 | volasertib 0.005 | [2] 0.012 | epoxomicin 0.145 | [3] -0.07 | [4] -0.016 | [5] -0.032 | rosiglitazone -0.003 | [6] 0.046 | [7] 0.001 | saracatinib -0.011 | sotrastaurin 0.006 | alvocidib -0.111 | Tubastatin A 0.061 | [8] -0.024 | defactinib -0.023 | rucaparib -0.018 | [9] -0.061 | encorafenib -0.011 | [10] 0.001
